PubChem BioAssay AID1159578, Peter MacCallum Cancer Centre, 2015
The deposit covers about 18,000 reagents; shown is a random part of them. Over the whole deposit, about 1,030 (5.7%) got an active call. 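Inactive calls also include pools with fewer than 3300 nuclei, whose migration was not assessed.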 The raw values are shown without normalisation. Entries without a mark were called inactive. The numbers tell different reagents against one gene apart. Not all columns of the deposit are shown.

- Purpose: 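siRNA pools altering how lymphatic endothelial cells close a scratch wound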 (primary screen)
- Cell system: human lymphatic endothelial cells
- Reagents: siRNA pool against human genes, 40 nM
- Timing: 48 h after transfection
- Measured: 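High-content imaging of dye-stained cells in a scratch assay measures filled wound area and nuclei per well; duplicate means given as ratio to mock and robust z-score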
- Reading the numbers: migration robust z-score: higher = faster migration into the scratch; nuclei per well: higher = more cells in the well
- Rule for the call: 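Migration changed when robust z exceeds 2 or falls below -2 and mean nuclei number is at least 3300; otherwise not called changed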
- Meaning of the calls: active = migration changed; inactive = no migration change, or too few cells

target	reagent no.	migration robust z-score	nuclei per well, duplicate mean
LMBR1L	1	0.68	5684
BTN3A1	1	0.16	5100
ADAP2	1	-0.14	5338
RCC1	1	0.7	5118
RCC1	2	0.44	6311
MRPS14	1	-1.96	5724
PABIR2	1	-0.33	7684
KIF15	1	1.53	5479
PHLDA2	1	0.73	5816
VAMP5	1	0.97	5719
ZFP42	1	-0.1	4865
ZNF616	1	2.79 (active)	6572
MEPE	1	0.48	6057
TACSTD2	1	0.28	4597
METAP2	1	-1.22	4342
GH2	1	0.61	5096
STARD7	1	-0.4	3882
NAGK	1	-0.1	5620
TMEM87A	1	0.43	6591
ACBD4	1	-1.15	3457
ZBTB4	1	0.24	5012
BBS2	1	0.9	6088
HSPA1B	1	0.96	5964
WDR83OS	1	-1.92	5143
ANGPTL8	1	-1.14	5137
OR1M1	1	1.89	5937
OSBPL7	1	-0.52	6529
CMTM3	1	-1.52	3328
RNF24	1	0.5	6376
TCAIM	1	3.08 (active)	5545
ZNF354C	1	0.19	5989
MTPN	1	2.02 (active)	5871
AMIGO1	1	0.15	6226
HSF2	1	0.72	5187
FGF12	1	0.54	6556
SLC9A2	1	0.68	5324

Next part (6 carried over from the part before).
target	reagent no.	migration robust z-score	nuclei per well, duplicate mean
ZNF354C	1	0.19	5989
MTPN	1	2.02 (active)	5871
AMIGO1	1	0.15	6226
HSF2	1	0.72	5187
FGF12	1	0.54	6556
SLC9A2	1	0.68	5324
TMEM161A	1	-0.42	8972
AP3M2	1	-2.27 (active)	4260
MS4A5	1	-1.15	6076
SAMD3	1	0.48	5799
WDR73	1	-1.43	6726
ANKRD2	1	-1.43	4552
NEDD4L	1	0.42	4242
SS18L2	1	-0.36	4403
NCSTN	1	-0.78	5984
BLOC1S3	1	1.17	6598
THTPA	1	-0.42	4806
SLC6A1	1	0.7	5973
NSUN3	1	0.72	6985
ZNF271P	1	-1.06	4617
ANXA7	1	-1.58	6830
INHBA	1	1.19	6288
METTL9	1	1.54	4327
PILRA	1	0.04	6186
OSM	1	0.42	6008
DKK4	1	1.86	3810
PSMD9	1	-1.48	5266
RXRA	1	-0.28	3600
ECHS1	1	1.73	5502
EMG1	1	2.58 (active)	5456
NDRG1	1	-0.88	4782
OR52A4P	1	1.9	5670
PALLD	1	1.66	6823
PLAT	1	-0.29	6042
MT1X	1	1.05	5816
PDSS1	1	-0.57	5246
PAM16	1	0.88	5569
LCE3E	1	-0.6	6258
FBXO9	1	0.96	5417
MCF2L	1	1.11	5329
OR4N2	1	-0.72	4088
TMEM132E-DT	1	-1.3	4890
ATP6V0E2	1	-2.04 (active)	6696
